Among the data in article PMC13543948, “SNX-BAR proteins 5 and 6 are required for NCOA7-AS antiviral activity against influenza A virus” (The Journal of Biological Chemistry, 2026) are binding values, retold here.

Sequences of proteins named here, by UniProt entry; tags and fusion partners are left off.
UniProt Q13596: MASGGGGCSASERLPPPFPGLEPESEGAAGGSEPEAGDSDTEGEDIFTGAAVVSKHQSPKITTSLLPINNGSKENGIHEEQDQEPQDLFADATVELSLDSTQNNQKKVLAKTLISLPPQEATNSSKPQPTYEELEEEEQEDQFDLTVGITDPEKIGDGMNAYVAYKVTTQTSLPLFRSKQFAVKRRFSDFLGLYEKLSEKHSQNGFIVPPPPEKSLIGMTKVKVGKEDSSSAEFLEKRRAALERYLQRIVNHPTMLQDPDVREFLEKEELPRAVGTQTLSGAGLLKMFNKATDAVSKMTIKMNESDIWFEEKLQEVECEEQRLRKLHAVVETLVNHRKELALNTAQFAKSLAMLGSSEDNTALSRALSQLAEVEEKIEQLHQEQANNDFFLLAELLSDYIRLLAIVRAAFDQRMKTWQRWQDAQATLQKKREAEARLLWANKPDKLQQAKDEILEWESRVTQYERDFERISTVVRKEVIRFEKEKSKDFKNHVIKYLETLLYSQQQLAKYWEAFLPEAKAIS

The target in this assay is T1, 3xFLAG-tagged NCOA7-AS, stably expressed in U87-MG cells (human) (UniProt Q8NI08).
T1 sequence: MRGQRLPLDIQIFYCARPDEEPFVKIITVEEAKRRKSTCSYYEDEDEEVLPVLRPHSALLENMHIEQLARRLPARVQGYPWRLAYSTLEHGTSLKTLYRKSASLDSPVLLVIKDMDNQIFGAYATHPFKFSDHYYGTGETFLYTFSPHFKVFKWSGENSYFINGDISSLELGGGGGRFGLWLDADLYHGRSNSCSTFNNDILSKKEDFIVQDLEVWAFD
Nature of the assay: affinity purification with mass spectrometry; 3xFLAG-NCOA7-AS stably expressed in U87-MG cells, FLAG immunoprecipitation, complexes analysed by mass spectrometry against a control immunoprecipitation; three independent experiments.

No constants are given. Whether binding was seen depends on the method and setting. In cells and extracts the contact can be indirect. Here binding means that the protein was enriched with, or labelled near, the bait; the list need not be complete. Tags and fused reporters may be left off the sequences shown.

For the substance “sorting nexin 1 (SNX1), endogenous in U87-MG cells (from UniProt Q13596 1-522)”, the binding entry is “binds”.
